Source: patent US20010046996A1, “Use of a compound for preparing a drug” (priority 2000, published 2001)
At least one structure is not confirmed: it was looked up by name or label, or the drawing left a doubt.

Test system: Lewis rats
Assay: EAE (experimental autoimmune encephalomyelitis) rat model for MS, clinical score
Assay type: in vivo

Cc1cc2nc3c4ccccc4n(CCN(C)C)c3nc2cc1C [B-220]
total effect (clinical score) (FIG. 2, 6 mg/animal, versus control): substantially lower
animals showing symptoms (FIG. 2, 12 mg/animal group): A majority of the animals do not show any symptoms at all
total effect (clinical score) (FIG. 2, 12 mg/animal, versus control): dramatically lowered
effect on clinical symptoms (clinical score) (FIG. 2, different doses (6 and 12 mg/animal)): down-regulate the clinical symptoms (clinical score) in a dose dependent manner
MS effect after pre-treatment (FIG. 3, 6 mg/animal, administration from −7 to +7 days in relation to day 0, versus control): clear lowered and delayed MS effect
MS effect after after-treatment (FIG. 4, 6 mg/animal, starting from day 7 and throughout the experiment, versus control): lowered the MS effect
